Measured values taken from the supplement of paper PMC10849652.
The list shows a part of the results.

Protein sequences, listed by entry. Tags and fused reporters are not part of them. Lines headed by an entry give the natural chain unless they say otherwise; changes in a name come on top.
UniProt Q8NI22: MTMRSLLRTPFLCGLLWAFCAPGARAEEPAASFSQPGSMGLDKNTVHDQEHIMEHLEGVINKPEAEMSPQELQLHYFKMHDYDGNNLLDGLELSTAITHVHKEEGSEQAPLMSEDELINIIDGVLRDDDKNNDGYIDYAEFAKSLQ
UniProt Q9NZL9, whole entry, looked up: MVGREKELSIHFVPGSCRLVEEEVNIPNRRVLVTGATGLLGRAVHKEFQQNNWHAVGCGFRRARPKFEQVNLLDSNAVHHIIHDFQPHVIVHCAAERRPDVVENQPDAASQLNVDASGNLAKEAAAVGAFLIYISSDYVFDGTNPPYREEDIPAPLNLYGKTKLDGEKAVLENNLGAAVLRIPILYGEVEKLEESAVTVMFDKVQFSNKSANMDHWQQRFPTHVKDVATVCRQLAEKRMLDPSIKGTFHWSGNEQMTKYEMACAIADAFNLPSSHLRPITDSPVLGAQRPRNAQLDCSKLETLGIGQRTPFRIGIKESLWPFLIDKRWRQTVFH
UniProt Q9BQP7: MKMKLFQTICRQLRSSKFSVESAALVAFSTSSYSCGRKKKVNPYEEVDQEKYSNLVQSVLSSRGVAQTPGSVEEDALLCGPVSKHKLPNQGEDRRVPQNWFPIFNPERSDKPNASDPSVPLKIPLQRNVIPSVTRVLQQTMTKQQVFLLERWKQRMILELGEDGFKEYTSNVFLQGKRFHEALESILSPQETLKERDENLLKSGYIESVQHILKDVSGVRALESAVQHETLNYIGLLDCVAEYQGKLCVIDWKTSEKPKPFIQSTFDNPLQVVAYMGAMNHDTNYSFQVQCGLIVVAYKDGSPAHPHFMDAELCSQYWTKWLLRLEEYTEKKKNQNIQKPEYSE
UniProt Q9BTT4: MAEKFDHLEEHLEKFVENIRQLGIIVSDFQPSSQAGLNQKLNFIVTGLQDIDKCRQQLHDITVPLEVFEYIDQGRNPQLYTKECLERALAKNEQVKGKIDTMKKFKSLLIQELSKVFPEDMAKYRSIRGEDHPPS
UniProt Q9GZU1, whole entry, looked up: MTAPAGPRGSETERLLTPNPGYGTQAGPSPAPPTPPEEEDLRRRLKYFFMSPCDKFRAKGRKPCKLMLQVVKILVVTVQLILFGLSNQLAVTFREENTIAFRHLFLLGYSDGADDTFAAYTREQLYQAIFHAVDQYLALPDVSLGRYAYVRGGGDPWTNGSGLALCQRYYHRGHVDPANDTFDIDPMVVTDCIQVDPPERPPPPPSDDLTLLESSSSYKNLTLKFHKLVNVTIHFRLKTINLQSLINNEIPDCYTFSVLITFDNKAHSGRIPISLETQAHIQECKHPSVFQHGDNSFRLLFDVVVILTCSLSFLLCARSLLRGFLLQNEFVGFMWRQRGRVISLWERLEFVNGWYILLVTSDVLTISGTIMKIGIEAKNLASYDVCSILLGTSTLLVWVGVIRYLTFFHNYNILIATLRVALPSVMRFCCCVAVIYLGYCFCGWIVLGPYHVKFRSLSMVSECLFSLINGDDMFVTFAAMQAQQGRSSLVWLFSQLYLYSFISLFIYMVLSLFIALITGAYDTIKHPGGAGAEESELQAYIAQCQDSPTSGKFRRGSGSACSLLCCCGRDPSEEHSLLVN
UniProt Q10469: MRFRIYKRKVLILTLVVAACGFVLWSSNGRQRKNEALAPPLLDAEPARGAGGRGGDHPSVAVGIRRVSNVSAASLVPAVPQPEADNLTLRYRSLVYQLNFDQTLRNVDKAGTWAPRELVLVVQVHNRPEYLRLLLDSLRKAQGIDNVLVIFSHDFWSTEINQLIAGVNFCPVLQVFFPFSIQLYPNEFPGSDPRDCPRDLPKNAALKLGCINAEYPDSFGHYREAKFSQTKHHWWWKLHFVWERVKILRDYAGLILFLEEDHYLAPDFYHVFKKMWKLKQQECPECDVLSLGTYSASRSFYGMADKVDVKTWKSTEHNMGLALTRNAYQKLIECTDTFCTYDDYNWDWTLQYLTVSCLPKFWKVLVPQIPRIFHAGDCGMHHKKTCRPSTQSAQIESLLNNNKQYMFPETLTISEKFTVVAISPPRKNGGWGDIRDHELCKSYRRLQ
UniProt Q16626: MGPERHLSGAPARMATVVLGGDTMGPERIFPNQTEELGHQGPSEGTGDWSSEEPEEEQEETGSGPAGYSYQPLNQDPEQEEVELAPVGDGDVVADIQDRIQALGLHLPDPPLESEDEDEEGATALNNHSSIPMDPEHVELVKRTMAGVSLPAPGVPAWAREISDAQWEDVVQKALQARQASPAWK
UniProt Q6ZNC8: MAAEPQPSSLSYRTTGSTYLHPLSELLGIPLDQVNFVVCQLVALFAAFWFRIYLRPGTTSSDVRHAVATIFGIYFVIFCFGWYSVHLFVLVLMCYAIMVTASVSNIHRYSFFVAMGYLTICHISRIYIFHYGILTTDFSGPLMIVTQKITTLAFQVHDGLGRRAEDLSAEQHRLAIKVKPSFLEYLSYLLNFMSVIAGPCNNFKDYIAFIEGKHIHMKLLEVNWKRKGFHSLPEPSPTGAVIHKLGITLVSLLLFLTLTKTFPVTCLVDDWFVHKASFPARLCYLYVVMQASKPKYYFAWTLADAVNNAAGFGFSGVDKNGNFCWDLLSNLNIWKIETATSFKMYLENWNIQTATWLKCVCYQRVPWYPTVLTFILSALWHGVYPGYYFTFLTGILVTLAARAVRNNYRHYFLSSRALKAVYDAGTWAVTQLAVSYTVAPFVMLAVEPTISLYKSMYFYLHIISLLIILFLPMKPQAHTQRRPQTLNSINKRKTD
UniProt O75586: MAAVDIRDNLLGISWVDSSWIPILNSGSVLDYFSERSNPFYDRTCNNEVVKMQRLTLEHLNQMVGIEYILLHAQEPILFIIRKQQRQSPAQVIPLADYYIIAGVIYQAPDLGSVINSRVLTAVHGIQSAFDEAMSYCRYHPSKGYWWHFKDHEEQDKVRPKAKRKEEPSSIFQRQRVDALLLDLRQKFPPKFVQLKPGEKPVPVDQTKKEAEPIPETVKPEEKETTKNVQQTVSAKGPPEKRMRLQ
UniProt O60244: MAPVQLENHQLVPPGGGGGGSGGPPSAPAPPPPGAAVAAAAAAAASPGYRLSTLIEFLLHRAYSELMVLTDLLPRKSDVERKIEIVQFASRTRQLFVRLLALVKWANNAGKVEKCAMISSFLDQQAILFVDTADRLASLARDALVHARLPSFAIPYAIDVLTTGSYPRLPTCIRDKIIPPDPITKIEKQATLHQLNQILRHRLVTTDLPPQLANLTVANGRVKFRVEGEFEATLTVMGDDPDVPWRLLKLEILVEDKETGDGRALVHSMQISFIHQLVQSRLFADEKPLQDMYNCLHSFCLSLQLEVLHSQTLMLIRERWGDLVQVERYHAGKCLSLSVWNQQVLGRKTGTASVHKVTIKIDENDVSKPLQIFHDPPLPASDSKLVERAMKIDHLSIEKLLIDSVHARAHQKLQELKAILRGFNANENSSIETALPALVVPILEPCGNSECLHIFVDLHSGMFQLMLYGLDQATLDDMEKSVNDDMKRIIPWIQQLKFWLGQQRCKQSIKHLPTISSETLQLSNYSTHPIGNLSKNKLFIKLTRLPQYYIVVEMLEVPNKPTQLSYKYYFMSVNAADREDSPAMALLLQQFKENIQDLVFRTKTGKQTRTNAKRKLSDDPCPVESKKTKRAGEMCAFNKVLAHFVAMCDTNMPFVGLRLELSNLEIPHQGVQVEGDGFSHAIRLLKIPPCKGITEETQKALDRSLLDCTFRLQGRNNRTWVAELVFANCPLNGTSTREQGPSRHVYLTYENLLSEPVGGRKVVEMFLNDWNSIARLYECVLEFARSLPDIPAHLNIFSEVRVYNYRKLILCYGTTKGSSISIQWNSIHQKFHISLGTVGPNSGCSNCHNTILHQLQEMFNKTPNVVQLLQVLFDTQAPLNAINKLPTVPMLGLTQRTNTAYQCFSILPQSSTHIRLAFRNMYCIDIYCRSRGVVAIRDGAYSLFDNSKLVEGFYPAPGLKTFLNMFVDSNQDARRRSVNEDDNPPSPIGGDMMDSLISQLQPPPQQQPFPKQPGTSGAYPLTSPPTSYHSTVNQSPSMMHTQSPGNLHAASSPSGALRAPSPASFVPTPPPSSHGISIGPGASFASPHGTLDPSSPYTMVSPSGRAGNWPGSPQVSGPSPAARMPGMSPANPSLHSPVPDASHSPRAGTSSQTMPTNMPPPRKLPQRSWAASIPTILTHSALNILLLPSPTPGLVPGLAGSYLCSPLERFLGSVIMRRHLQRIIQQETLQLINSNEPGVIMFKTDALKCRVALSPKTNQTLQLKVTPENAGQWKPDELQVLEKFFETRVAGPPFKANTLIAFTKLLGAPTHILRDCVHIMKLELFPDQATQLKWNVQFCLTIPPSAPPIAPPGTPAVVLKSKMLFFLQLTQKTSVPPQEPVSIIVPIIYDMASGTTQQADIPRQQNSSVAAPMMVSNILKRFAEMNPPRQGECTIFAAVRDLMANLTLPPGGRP
UniProt Q86YT6, whole entry, looked up: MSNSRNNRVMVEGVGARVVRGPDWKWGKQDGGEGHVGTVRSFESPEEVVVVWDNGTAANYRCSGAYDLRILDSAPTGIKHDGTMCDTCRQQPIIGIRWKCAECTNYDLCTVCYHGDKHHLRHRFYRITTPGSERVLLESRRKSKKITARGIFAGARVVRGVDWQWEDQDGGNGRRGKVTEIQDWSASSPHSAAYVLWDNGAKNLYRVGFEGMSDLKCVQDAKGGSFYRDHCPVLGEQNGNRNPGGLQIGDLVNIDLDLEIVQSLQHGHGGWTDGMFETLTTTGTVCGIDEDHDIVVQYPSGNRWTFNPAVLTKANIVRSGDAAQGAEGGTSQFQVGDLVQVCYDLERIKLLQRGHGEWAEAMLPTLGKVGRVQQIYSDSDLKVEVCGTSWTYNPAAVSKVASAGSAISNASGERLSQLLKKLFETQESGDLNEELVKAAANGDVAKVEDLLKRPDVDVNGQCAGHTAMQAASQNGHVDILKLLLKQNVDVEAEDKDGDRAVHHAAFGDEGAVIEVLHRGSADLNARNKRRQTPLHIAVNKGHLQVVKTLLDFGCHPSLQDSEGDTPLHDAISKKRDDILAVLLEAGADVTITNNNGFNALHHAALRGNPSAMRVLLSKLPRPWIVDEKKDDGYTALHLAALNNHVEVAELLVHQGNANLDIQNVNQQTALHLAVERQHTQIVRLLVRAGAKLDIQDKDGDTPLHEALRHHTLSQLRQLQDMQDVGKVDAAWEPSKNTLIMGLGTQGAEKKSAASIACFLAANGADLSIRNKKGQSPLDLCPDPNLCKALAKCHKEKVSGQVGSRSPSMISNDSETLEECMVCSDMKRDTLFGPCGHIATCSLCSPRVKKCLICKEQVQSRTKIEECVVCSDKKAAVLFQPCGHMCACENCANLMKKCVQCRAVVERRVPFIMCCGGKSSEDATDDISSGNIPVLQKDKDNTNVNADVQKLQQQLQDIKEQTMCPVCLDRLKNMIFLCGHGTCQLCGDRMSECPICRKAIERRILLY
UniProt Q9NWR8: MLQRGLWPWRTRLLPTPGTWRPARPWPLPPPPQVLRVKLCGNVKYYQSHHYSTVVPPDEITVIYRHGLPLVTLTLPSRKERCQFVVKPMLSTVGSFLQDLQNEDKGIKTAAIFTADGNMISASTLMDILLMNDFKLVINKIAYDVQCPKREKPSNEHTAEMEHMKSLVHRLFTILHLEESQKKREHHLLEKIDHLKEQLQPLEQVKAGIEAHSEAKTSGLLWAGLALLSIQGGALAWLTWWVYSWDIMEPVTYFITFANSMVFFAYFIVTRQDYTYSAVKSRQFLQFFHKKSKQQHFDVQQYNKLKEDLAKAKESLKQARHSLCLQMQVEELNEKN
UniProt Q9BTE3: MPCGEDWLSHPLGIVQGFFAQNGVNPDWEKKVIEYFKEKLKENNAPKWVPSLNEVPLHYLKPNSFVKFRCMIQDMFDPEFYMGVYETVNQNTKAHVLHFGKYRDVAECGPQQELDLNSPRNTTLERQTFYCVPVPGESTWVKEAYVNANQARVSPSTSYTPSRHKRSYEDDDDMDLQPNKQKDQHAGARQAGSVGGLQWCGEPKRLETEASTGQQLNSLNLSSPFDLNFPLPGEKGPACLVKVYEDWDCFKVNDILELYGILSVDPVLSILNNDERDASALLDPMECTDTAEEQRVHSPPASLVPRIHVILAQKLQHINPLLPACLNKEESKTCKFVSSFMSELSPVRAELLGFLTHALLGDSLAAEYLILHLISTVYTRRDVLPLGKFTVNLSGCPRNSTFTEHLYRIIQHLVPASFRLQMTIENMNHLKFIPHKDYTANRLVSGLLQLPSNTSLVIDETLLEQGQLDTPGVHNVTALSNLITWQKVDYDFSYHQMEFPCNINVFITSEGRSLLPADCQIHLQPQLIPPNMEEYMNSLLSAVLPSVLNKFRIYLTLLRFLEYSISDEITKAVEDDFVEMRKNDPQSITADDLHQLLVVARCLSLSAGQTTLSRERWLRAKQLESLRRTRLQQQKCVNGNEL
UniProt Q14696: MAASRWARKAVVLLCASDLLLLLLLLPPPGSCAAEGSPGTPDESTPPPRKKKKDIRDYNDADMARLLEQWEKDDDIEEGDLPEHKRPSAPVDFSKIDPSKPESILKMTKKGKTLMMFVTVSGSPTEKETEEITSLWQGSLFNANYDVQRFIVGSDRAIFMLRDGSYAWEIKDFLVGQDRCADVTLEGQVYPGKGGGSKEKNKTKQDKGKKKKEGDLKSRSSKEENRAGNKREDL

What follows are targets tested with c1cn2cc(-c3ccc4cn[nH]c4c3)nc(Nc3ccc(N4CCOCC4)cc3)c2n1 [entospletinib] (assay: log2 fold change, soluble protein after heating vs DMSO (PISA); higher = thermal stabilisation; K562 cells, 10 uM, 30 min; active = over 0.2 and 3.5 SD of the protein, either way, in both replicates (recomputed)).
Outline: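 K562 cells at 2×10^6 cells/mL were treated for 30 min with 10 μM compound, and aliquots were heated for 3 min over 48°C-58°C before pooling. Extraction used PBS with 0.5% NP-40 at 4°C, and soluble protein was the supernatant after 21,000xg for 90 min, measured by TMTpro 16plex LC-MS/MS with channel sums equalised. Thermal stability values, relative to control samples and from duplicates, are log2 fold changes.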

log2 fold change, inactive:
MED23 (UniProt Q9ULK4) -0.031
MBOAT2 (UniProt Q6ZWT7) -0.058
MCFD2 (UniProt Q8NI22) 0.033
MEGF8 (UniProt Q7Z7M0) 0.1
MAT2B (UniProt Q9NZL9) -0.008
MGAT1 (UniProt P26572) 0.017
MGME1 (UniProt Q9BQP7) -0.018
MED10 (UniProt Q9BTT4) -0.055
MBLAC2 (UniProt Q68D91) -0.017
MCOLN1 (UniProt Q9GZU1) -0.072
MGST2 (UniProt Q99735) 0.017
MGAT2 (UniProt Q10469) 0.047
MCM4 (UniProt P33991) -0.025
MEA1 (UniProt Q16626) -0.095
MBOAT1 (UniProt Q6ZNC8) -0.051
MED6 (UniProt O75586) -0.035
MED14 (UniProt O60244) 0.123
MDH2 (UniProt P40926) 0.032
MIB1 (UniProt Q86YT6) 0.016
MCUB (UniProt Q9NWR8) -0.008
MDH1 isoform 3 (UniProt P40925) -0.053
MCMBP (UniProt Q9BTE3) -0.016
MAVS (UniProt Q7Z434) -0.007
MESD (UniProt Q14696) 0.008

A run of entries of the results above:
log2 fold change, inactive:
MGST2 (UniProt Q99735) 0.017
MGAT2 (UniProt Q10469) 0.047
